# Screen size: about 220,000 compounds; about 2,400 (1.1%) were called active. Inconclusive means that the source gave no clear call. Such entries were picked first, then a sample of the others. Calls follow the shape of the dose curve; as a rule, active = well fitted inhibition curve with a large enough effect; inconclusive = small, poorly fitted or top-dose-only effect, or effect the other way; inactive = no such curve, though single readings can be large or run the other way. Potencies of inconclusive entries are doubtful fits and often do not repeat.
# Test: qHTS Multiplex Assay to Identify Dual Action Probes in a Cell Model of Huntington: Aggregate Formation (GFP); also: nearly all actives have a fitted effect of over 60% in size
# Conditions: PC12 HttQ103-GFP aggregates, Acumen cytometry, 40 h; activity change, negative = inhibition: at 46.1 µM (top of the series) unless noted
# In short: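 Quantitative HTS on tebufenozide-induced (100 nM) PC12 cells stably expressing polyQ103 Huntingtin exon 1–GFP. Reduction of bright GFP aggregates, detected by laser scanning cytometry after lysis, identified actives across the titration.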
# % is scaled to controls: 0 for no effect and ±100 for the full control effect; potency is read from the fitted curve at half-maximal effect.
SMILES,"activity change, negative = inhibition",Potency
C[N+]1(CC#CC(O)(c2ccccc2)c2ccccc2)CCCC1,inactive: -8.37%,
O=C(NCc1ccc2c(c1)OCO2)C1CCC(CNS(=O)(=O)c2cccc3nsnc23)CC1 (stereo unspecified),inactive: -12.7%,
O=C(O)c1ccc(N2C(=O)c3cccc4c(C(=O)O)ccc(c34)C2=O)cc1,inactive: 17.3%,
COc1ccccc1Oc1nnnn1-c1ccc(C(N)=O)cc1,inactive: 0.401%,
Cn1c(CSCc2ccc(F)cc2)nnc1SCC(=O)N1CCN(c2ccccc2)CC1,,"inconclusive: 11.2 µM [inhibitor, single point]"
Cc1[nH]c2ccccc2c1C(=O)COC(=O)Cn1cnc2ccccc21,,"inconclusive: 5.62 µM [inhibitor, single point]"
Cc1c(C(=O)NCCCN2CCOCC2)sc2ncnc(N3CCN(c4ccccc4)CC3)c12,inactive: 25.9%,
O=c1[nH]c2cccc(Cl)c2n(CCNc2ncc(C(F)(F)F)cc2Cl)c1=O,,"inconclusive: 14.1 µM [inhibitor, single point]"
Cc1ccc(-n2c(SCC(=O)Nc3nccs3)nc3c(c2=O)SCC3)cc1,,"inconclusive: 0.0355 µM [inhibitor, full curve, poor fit]"
CCOC(=O)c1c(C)[nH]c(C(=O)COC(=O)[C@H](C)NC(=O)c2ccccc2Cl)c1C,,"inconclusive: 3.55 µM [activator, single point]"
O=C(N/N=C/c1ccc(N2CCCCC2)o1)C(O)(c1ccccc1)c1ccccc1,,"inconclusive: 31.6 µM [activator, single point]"
COc1ccc(-c2nn(-c3ccccc3)cc2/C=N/Nc2ccccn2)cc1,,"inconclusive: 0.562 µM [activator, full curve, poor fit]"
CCOCCCNC(=O)c1ccc2c(=O)n(Cc3ccc(OC)cc3)c(=O)[nH]c2c1,,"inconclusive: 5.62 µM [activator, single point]"
O=C(c1ccc([N+](=O)[O-])s1)N1CCN(c2ccccc2)CC1,,"inconclusive: 35.5 µM [inhibitor, single point]"
CCN1CCN(C(=O)NC(c2ccc(C)c(F)c2)C(Cl)Cl)CC1 (stereo unspecified),inactive: 3.05%,
Cc1ccc(OCC(=O)NNC(=S)NC(=O)C(C)(C)C)c(Br)c1,,active: 11.2 µM
COc1ccc(-n2c(O)c(C=Nc3ccccc3)c3ccccc3c2=O)cc1OC,inactive: 0.301% [at 9.22 µM],
CCOc1ccc(-c2n[nH]c(C)c2-c2ccccc2OC)c(O)c1,,"inconclusive: 35.5 µM [inhibitor, single point]"
Clc1ccc(N=c2ssnc2Cl)cc1,,"inconclusive: 14.1 µM [inhibitor, partial curve, poor fit]"
Cc1nc2c3ccccc3n(Cc3ccccc3F)c2s1,inactive: 19.5%,
COc1ccccc1NC(c1cccnc1)c1ccc2cccnc2c1O (stereo unspecified),,"inconclusive: 35.5 µM [inhibitor, single point]"
CCOCCCNS(=O)(=O)c1ccc(NC(=O)N2c3ccccc3Sc3ccccc32)cc1,,"inconclusive: 11.2 µM [inhibitor, partial curve]"
Cn1cc([N+](=O)[O-])c(C(=O)Nc2ccc(-c3nc4ccccc4[nH]3)cc2)n1,,"inconclusive: 2.51 µM [activator, partial curve]"
CCOC(=O)C(C(=O)OCC)c1cc(Br)c2noc3c2c1C(=O)c1ccccc1-3,,"inconclusive: 12.6 µM [inhibitor, partial curve]"

# Some values from the entries so far.
# Value of O=C(N/N=C/c1ccc(N2CCCCC2)o1)C(O)(c1ccccc1)c1ccccc1 under Potency: inconclusive: 31.6 µM [activator, single point]
# Value of Cc1c(C(=O)NCCCN2CCOCC2)sc2ncnc(N3CCN(c4ccccc4)CC3)c12 under activity change, negative = inhibition: inactive: 25.9%

# (next part)

SMILES,"activity change, negative = inhibition",Potency
CN1CCN(/N=C/c2nc(-c3ccccc3Cl)n3ccccc23)CC1,,"inconclusive: 3.55 µM [inhibitor, single point]"
CCc1nnc(NC(=O)CSc2ncc(-c3ccccc3)n2C)s1,inactive: -0.962%,
CCOC(=O)c1ccccc1NC(=O)c1c(O)c2ccccc2n(CC)c1=O,,"inconclusive: 35.5 µM [inhibitor, single point]"
CC(C)C[C@H](N)c1nnc(S(=O)(=O)Cc2cccc(F)c2)o1,,"inconclusive: 35.5 µM [inhibitor, single point]"
Cc1ccc(CC(=O)NC(C)CCc2ccccc2)cc1 (stereo unspecified),inactive: 11.7%,
NC(=O)COC(=O)CCSc1ccc(Cl)cc1,,"inconclusive: 6.31 µM [activator, partial curve]"
Cc1csc(NC(=O)C2CC(=O)N(Cc3ccco3)C2)n1 (stereo unspecified),,active: 0.631 µM
COc1cc(NC(=O)COC(C)=O)cc(OC)c1OC,inactive: 1.91%,
COc1cc(O)c(C(CCN2CCCC2)c2ccc(N(C)C)cc2)c(OC)c1 (stereo unspecified),,"inconclusive: 0.282 µM [activator, partial curve]"
Cn1nc([N+](=O)[O-])c(C(C#N)c2ccccn2)c(Cl)c1=O (stereo unspecified),,"inconclusive: 35.5 µM [inhibitor, single point]"
C/C(N)=C(/C#N)C(=O)COC(=O)c1oc2ccccc2c1COC(C)C,inactive: -7.77%,
Cc1cccc(Cn2c(NCCO)nc3c2c(=O)n(C)c(=O)n3C)c1,,"inconclusive: 35.5 µM [inhibitor, single point]"
Cc1ccc(/C=N/NC(=O)Cc2c[nH]c3ccccc23)c(C)c1,inactive: -0.495%,
CC(=O)c1c(C(C)=O)c(C)n(Cc2ccc(Cl)cc2)c1C,,"inconclusive: 22.4 µM [inhibitor, partial curve]"
CCN(CC(=O)Nc1c(C(=O)OC)[nH]c2ccccc12)c1ccc2c(c1)OCO2,,"inconclusive: 35.5 µM [inhibitor, single point]"
Cc1cc(C)cc(S(=O)(=O)c2cnc3ccccc3n2)c1,,"inconclusive: 22.4 µM [inhibitor, single point]"
O=C(O)c1cc(=O)[nH]c2c(Cl)cccc12,inactive: 16% [at 9.22 µM],
CC1CN(S(=O)(=O)c2cn(C)c(=O)n(C)c2=O)CC(C)O1 (stereo unspecified),,"inconclusive: 0.562 µM [activator, full curve, poor fit]"
CSc1ccc(Cl)c(C(=O)NC2CCCC2)c1,inactive: 3.88%,
O=C(Nc1ccc(F)cc1)c1ccc(S(=O)(=O)NCC2CCCO2)cc1 (stereo unspecified),,"inconclusive: 8.91 µM [inhibitor, partial curve]"
CCOC(=O)/C(=C\c1ccc(OC(F)F)cc1)C1=Nn2c(nnc2-c2ccc(Cl)cc2)SC1,,"inconclusive: 35.5 µM [inhibitor, single point]"
COc1cc(OC)c(C2=NOC(C(=O)O)C2)cc1Cl (stereo unspecified),,"inconclusive: 3.16 µM [inhibitor, partial curve]"
CCOC(=O)CNC(=S)N(Cc1ccccc1F)C1CCCCC1,inactive: -0.435%,
COC(=O)C(NC(=O)c1ccccc1Cl)(Nc1ncc(S(=O)(=O)c2ccc([N+](=O)[O-])cc2)s1)C(F)(F)F (stereo unspecified),,"inconclusive: 0.562 µM [inhibitor, full curve]"

# Taken from the listing, three compounds:
SMILES,"activity change, negative = inhibition",Potency
Cc1cc(C)cc(S(=O)(=O)c2cnc3ccccc3n2)c1,,"inconclusive: 22.4 µM [inhibitor, single point]"
O=C(O)c1cc(=O)[nH]c2c(Cl)cccc12,inactive: 16% [at 9.22 µM],
CC1CN(S(=O)(=O)c2cn(C)c(=O)n(C)c2=O)CC(C)O1 (stereo unspecified),,"inconclusive: 0.562 µM [activator, full curve, poor fit]"

# Later entries:

SMILES,"activity change, negative = inhibition",Potency
CCc1ccc(C(O)(c2ccccc2OC)C(CN2CCOCC2)c2ccccc2)cc1 (stereo unspecified),,active: 11.2 µM
CCOC(=O)CNC(=O)Nc1cccc(Cl)c1C,,"inconclusive: 5.62 µM [inhibitor, single point]"
CCOC(=O)C(NC(=O)Nc1ccc(Cl)cn1)(Oc1ccc(F)cc1)C(F)(F)F (stereo unspecified),,"inconclusive: 0.631 µM [inhibitor, full curve, poor fit]"
O=C(NCc1cccs1)c1cc2c(s1)CCCC2,,"inconclusive: 5.62 µM [activator, single point]"
COc1ccccc1CNC(=O)C1CCN(S(=O)(=O)N2CCCCC2)CC1,inactive: -4.52%,
C=CCN1C(=O)NC(c2ccc(OC)cc2)(C(F)(F)F)S/C1=C(\C#N)c1nnc(N2CCOCC2)n1-c1ccccc1 (stereo unspecified),,"inconclusive: 15.8 µM [activator, partial curve]"
O=C(c1cc2nc(-c3ccco3)cc(C(F)(F)F)n2n1)N1CCCCCC1,,"inconclusive: 31.6 µM [inhibitor, single point]"
CC1CCCN(c2ccc3nc4ccccc4c(=O)n3n2)C1 (stereo unspecified),inactive: -13.7%,
COc1ccc(C(=O)/C=C/Nc2ccc(S(=O)(=O)Nc3cccc(C(C)=O)c3)cc2)cc1,,"inconclusive: 0.447 µM [activator, single point]"
CCOc1ccccc1NC(=O)C(=O)N/N=C/c1cc(Br)ccc1O,,"inconclusive: 2 µM [inhibitor, full curve]"
Cc1c2c(nc3c(C(=O)NC4CCCCC4C)cnn13)CCCC2 (stereo unspecified),,"inconclusive: 35.5 µM [inhibitor, single point]"
CCC(C)CCCCNC1=NCCS1 (stereo unspecified),inactive: -13.5%,
O=C(N/N=C/c1cccc(Oc2ccccc2)c1)c1cccc(Br)c1,,"inconclusive: 11.2 µM [inhibitor, single point]"
CC(C)NC(=S)N/N=C/c1cc(Br)ccc1O,,"inconclusive: 12.6 µM [inhibitor, partial curve]"
CN(C)S(=O)(=O)c1cc(NC(=O)Cn2ccsc2=N)ccc1Cl,inactive: 18.7%,
O=C(c1ccc(Cl)cc1)N1CCC(O)(CSc2ccc(Cl)cc2Cl)CC1,,active: 10 µM
O=C(COC(=O)c1cc(-c2ccncc2)nc2ccccc12)Nc1ccc2c(c1)OCO2,,"inconclusive: 0.501 µM [activator, partial curve, poor fit]"
COc1ccccc1NC(=O)c1ccccc1-c1nc(-c2ccccc2OC)no1,,"inconclusive: 35.5 µM [activator, single point]"
O=C(NNC(=S)Nc1ccccc1)C1CCCCC1,inactive: 3.29%,
O=C(NCc1cccs1)c1cc2c(s1)-c1ccccc1OC2,,"inconclusive: 35.5 µM [inhibitor, single point]"
C=CCN1C(=O)C(Cc2ccc(SC(F)F)cc2)SC1=Nc1ccc(C(=O)O)cc1 (stereo unspecified),inactive: 8.66%,
O=[N+]([O-])c1ccc(Sc2cccc3cccnc23)c([N+](=O)[O-])c1,,"inconclusive: 35.5 µM [inhibitor, single point]"
O=C(Cc1ccc([N+](=O)[O-])cc1)Nc1ccc(Cl)cc1,,"inconclusive: 35.5 µM [inhibitor, single point]"

# Reference: PubChem BioAssay AID1688 (National Center for Advancing Translational Sciences (NCATS), 2009)
